# In all, about 6,900 compounds went through this assay and fewer than 10 were called active. Calls come from the whole dose curve; as a rule, active = well fitted curve in the direction sought with a large enough effect; inconclusive = small, poorly fitted or top-dose-only effect, or another doubt; inactive = no such curve, though single readings can be large or run the other way. The list shows a part of the results.
# Amino acid sequences for entries named in this document (tags omitted). A change or cut given only in a name is not applied to a line headed by its entry.
# UniProt C7C422: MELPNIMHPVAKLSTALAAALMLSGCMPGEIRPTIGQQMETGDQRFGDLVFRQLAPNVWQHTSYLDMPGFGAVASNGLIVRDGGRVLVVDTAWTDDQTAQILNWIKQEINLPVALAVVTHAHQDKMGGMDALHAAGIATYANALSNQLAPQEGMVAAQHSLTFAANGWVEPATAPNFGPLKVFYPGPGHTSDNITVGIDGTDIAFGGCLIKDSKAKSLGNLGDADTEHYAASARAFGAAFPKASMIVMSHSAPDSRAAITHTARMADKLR
# Biological target: Metallo-beta-lactamase type 2 (Klebsiella pneumoniae) (UniProt C7C422)
# Experiment: qHTS to identify inhibitors of the New Delhi Metallo-beta-lactamase (NDM): primary screen against the NCATS Gemini Collection; note: % of control where 0% means no effect
# Conditions: NDM-1 enzyme, meropenem hydrolysis, absorbance 300 nm; at 38.4 µM (top of the series) unless noted
# Method in brief: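 NDM-1 at 2 nM final in 50 mM HEPES pH 7.0, 1 uM ZnSO4, 0.01% Tween20, preincubated >30 min with compound. Meropenem 50 uM final added; absorbance at 300 nm after 30 min.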
row,SMILES,activity % (negative = inhibition)
1,COc1cc2c(cc1OCC1CCCC1)N([S+](=O)([O-])c1ccc(Oc3ccccc3)cc1)CC21CCN(CC(=O)O)CC1,inactive: 11%
2,O=C(O)C1=NOC2CN(CC3CCCCC3)CC12 (stereo not drawn),inactive: -9.19% [at 57.5 µM]
3,CCn1ccc(C(=O)N2[C@H]3CC[C@@H]2c2cnc(C)nc2C3)n1,inactive: -1.49%
4,CCCN1CCN(C(=O)Cc2cccn2-c2ccc(F)cc2)CC1,inactive: 13.5%
5,C#C[C@H]1CN2CC[C@H]1C[C@@H]2CNS(=O)(=O)CCC,inactive: 3.97% [at 77.1 µM]
6,CC(=O)c1cccc(NC(=O)OC[C@H]2C[C@@H]3CCN2C[C@@H]3c2cc(C3CCCC3)nc(C)n2)c1,inactive: -1.82%
7,CCn1c(CO)nnc1C1CC(NC(=O)c2cnn(Cc3ccccc3)c2)C1 (stereo not drawn),inactive: 0.618%
8,CS(=O)(=O)NC[C@H]1C[C@@H]2CCN1C[C@@H]2CN1CCc2ccccc2C1,inactive: 2.32% [at 57.5 µM]
9,O=C(c1ccccc1)N1C[C@@H](c2ccc3c(c2)OCO3)[C@@H]2[C@H]1C1CCN2CC1,inactive: 4.79%
10,NC(=O)c1ccc(N2CC3CCC(C2)N3CC(F)(F)F)nn1,inactive: 32.7%
11,Cn1cccc1C(=O)C(=O)N1C[C@H](c2cc(F)cc(F)c2)[C@@H]2[C@H]1C1CCN2CC1,inactive: -2.68%
12,COc1ccc(C(=O)N2C[C@@H]3C[C@H](C2)c2ccc(NC(=O)CN(C)C)c(=O)n2C3)cc1,inactive: 35% [at 57.5 µM]
13,CN1CCN([C@H]2[C@@H]3OC[C@@H](O3)[C@@H](NCc3ccccn3)[C@@H]2O)CC1,inactive: 1.8% [at 57.5 µM]
14,CN(C)c1nc2c(c(N3C[C@H]4CNC[C@@]4(C(=O)O)C3)n1)CCCC2,inactive: 24.6%
15,COc1ccccc1CC(=O)N1CCN(C2CCN(C)C2=O)CC1 (stereo not drawn),inactive: -2.04%
16,Cc1ccc([C@H]2CN(C(=O)CN3C(=O)CNC3=O)[C@@H]3C4CCN(CC4)[C@H]23)cc1,inactive: 1.79%
17,CC(C)N1CC2CCC(C1)N2S(=O)(=O)C1CC1,inactive: 8.08% [at 57.5 µM]
18,Cc1nc(-c2ccccc2)cc([C@H]2CN3CC[C@H]2C[C@@H]3CNS(C)(=O)=O)n1,inactive: 1.31% [at 57.5 µM]
19,O=C(Nc1ccc(=O)n2c1[C@@H]1C[C@@H](CN(C(=O)NC3CCCCC3)C1)C2)c1ccco1,inactive: 6.25% [at 57.5 µM]
20,COc1ccc([C@@H]2CN(C(=O)Cc3nonc3C)[C@@H]3C4CCN(CC4)[C@@H]32)cc1,inactive: -1.27%
21,N#Cc1ccccc1S(=O)(=O)N1C[C@@H]2C[C@H](C1)c1ccc(-c3ccc(Cl)cc3)c(=O)n1C2,inactive: 8.06%
22,CCc1nc(C)c(C(=O)N2C[C@@H](c3ccc(F)cc3)[C@@H]3[C@H]2C2CCN3CC2)o1,inactive: 4.42%
23,CSCC(=O)Nc1ccc2n(c1=O)C[C@H]1C[C@@H]2CN(C(=O)CSCC(=O)O)C1,inactive: 29.6% [at 57.5 µM]
24,COCC1CN(C)CC12CCN(Cc1cccnc1)CC2 (stereo not drawn),inactive: 1.85%
25,CCN1CCCN(C(=O)c2cccnc2)CC12CCOCC2,inactive: 0.324%
26,Cc1cnc(C2CC2)n1C1CCNCC1,inactive: -3.43%

# 2 entries picked at random from the list so far:
row,SMILES,activity % (negative = inhibition)
10,NC(=O)c1ccc(N2CC3CCC(C2)N3CC(F)(F)F)nn1,inactive: 32.7%
22,CCc1nc(C)c(C(=O)N2C[C@@H](c3ccc(F)cc3)[C@@H]3[C@H]2C2CCN3CC2)o1,inactive: 4.42%

# An excerpt of these results, as tab-separated lines.
row	SMILES	activity % (negative = inhibition)
4	CCCN1CCN(C(=O)Cc2cccn2-c2ccc(F)cc2)CC1	inactive: 13.5%
5	C#C[C@H]1CN2CC[C@H]1C[C@@H]2CNS(=O)(=O)CCC	inactive: 3.97% [at 77.1 µM]
21	N#Cc1ccccc1S(=O)(=O)N1C[C@@H]2C[C@H](C1)c1ccc(-c3ccc(Cl)cc3)c(=O)n1C2	inactive: 8.06%
22	CCc1nc(C)c(C(=O)N2C[C@@H](c3ccc(F)cc3)[C@@H]3[C@H]2C2CCN3CC2)o1	inactive: 4.42%

# Next part:

row,SMILES,activity % (negative = inhibition)
1,Cn1nc(-c2cccs2)cc1[C@H]1CN2CC[C@H]1C[C@@H]2CNC(=O)C1CCCCC1,inactive: -0.312% [at 57.5 µM]
2,O=C([C@H]1CN2CCC1C[C@@H]2Cn1cc(-c2ccccn2)nn1)N1CCOCC1 (stereo partly drawn),inactive: 2.46% [at 57.5 µM]
3,CCCS(=O)(=O)NC[C@H]1C[C@@H]2CCN1C[C@@H]2c1cc(C2CCCCC2)nn1C,inactive: -4.09% [at 57.5 µM]
4,CN1CCN(C(=O)Cc2c[nH]c3ncc(-c4ccnn4C)cc23)CC1,inactive: 10.4% [at 57.5 µM]
5,CCCSc1ncc(CN2CCCC3(CCNC3)C2)cn1 (stereo not drawn),inactive: 7.23%
6,CC[C@H]1CN2CC[C@H]1C[C@@H]2CN(Cc1cccs1)Cc1cccs1,inactive: 8.69% [at 57.5 µM]
7,O=C(Nc1ccc2n(c1=O)C[C@H]1C[C@@H]2CN(C(=O)c2ccccn2)C1)C1CCCCC1,inactive: 14.3% [at 57.5 µM]
8,CNc1ncc(C(=O)N2C[C@H]3COc4ccccc4C[C@@]3(C(=O)O)C2)cn1,inactive: 1.15%
9,CN(C)C(=O)CC1CCOC2(CCNCC2)C1 (stereo not drawn),inactive: 7.55%
10,CC(C)CC(=O)N1CC[C@@H]2COCCN(C)[C@@H]2C1,inactive: 6.66%
11,C=C[C@H]1CN2CC[C@H]1C[C@@H]2CNS(=O)(=O)c1ccc(Cl)cc1,inactive: 6.88% [at 57.5 µM]
12,Cc1cc(C[C@@H]2COC[C@@H]2NC(=O)c2cn(C)c3ccccc23)on1,inactive: 6.87%
13,CC(C)N1C[C@@H]2OCC(=O)N(Cc3ccccn3)[C@@H]2C1,inactive: 18.4% [at 77.1 µM]
14,COCCn1c(C)cc(C(=O)NC2CCc3nnc(C4CC4)n3CC2)c1C (stereo not drawn),inactive: -1.19%
15,CC(C)N1CC2CCC(C1)N2Cc1cccs1,inactive: 46.8% [at 57.5 µM]
16,CC(C)(C)CC(=O)N1C[C@@H]2C[C@H](C1)c1ccc(NC(=O)c3ccco3)c(=O)n1C2,inactive: 3.25% [at 57.5 µM]
17,COc1ccccc1-c1cc([C@H]2CN3CC[C@H]2C[C@@H]3CNC(=O)N2CCOCC2)n(C)n1,inactive: -2.92% [at 57.5 µM]
18,COc1cc2c(cc1OCc1ccncc1)NC(=O)C21CCN(Cc2ccccc2)CC1,inactive: 4.33% [at 57.5 µM]
19,C/C=C/CN1CC2ON=C(C(=O)O)C2C1 (stereo not drawn),inactive: 0.52% [at 77.1 µM]
20,COc1cc2c(cc1Oc1ccccc1)NC(=O)C21CCN(c2nc(C)cnc2C)CC1,inactive: 5.27% [at 57.5 µM]
21,CCN1C(=O)CCNCC12CCOCC2,inactive: 39.8%
22,CCCS(=O)(=O)N1C[C@@H]2C[C@H](C1)c1c(-c3ccccc3)ccc(=O)n1C2,inactive: 44.9% [at 57.5 µM]
23,CC(C)NC(=O)N1CC[C@@H](CC(=O)O)[C@@H](CCN2C[C@@H]3C[C@H](C2)c2cccc(=O)n2C3)C1,inactive: 21.5%
24,O=C(O)C1=NOC2CN(Cc3ccccc3)CC12 (stereo not drawn),inactive: 0.121% [at 77.1 µM]
25,COc1cc2c(cc1Oc1ccccc1)NC(=O)C21CCN(CC2CC2)CC1,inactive: 9.2% [at 57.5 µM]
26,CC1=NOC2(CCN(Cc3cc(C)on3)C2)C1 (stereo not drawn),inactive: -1.49% [at 57.5 µM]

row,SMILES,activity % (negative = inhibition)
1,CCn1cc(CN2CCN(C(=O)COc3ccccc3)CC2)ccc1=O,inactive: 2.36%
2,N#Cc1cccc(NC(=O)NC[C@H]2C[C@@H]3CCN2C[C@@H]3CN2CCN(c3ccccn3)CC2)c1,inactive: -0.739%
3,O=C1NC2(CCN(Cc3ccccn3)C2)Oc2ccccc21 (stereo not drawn),inactive: 6.24% [at 57.5 µM]
4,Cn1nc(C2CCCCC2)cc1[C@H]1CN2CC[C@H]1C[C@@H]2CNC(=O)NCc1ccccc1,inactive: -6.54%
5,CCN1CCN(c2ccc(Cl)nn2)C(=O)C1,inactive: 1.68% [at 57.5 µM]
6,CSc1ccc(-c2ccc(=O)n3c2[C@@H]2C[C@@H](CN(C(=O)Nc4cccc(F)c4)C2)C3)cc1,inactive: 9.87%
7,CC(=O)c1ccc(NC(=O)OC[C@H]2C[C@@H]3CCN2C[C@@H]3c2cc(C3CCCC3)nc(-c3ccncc3)n2)cc1,inactive: 16.3%
8,CN1CCN(C(=O)Cc2c[nH]c3ncc(-c4cccc(O)c4)cc23)CC1,inactive: -0.773% [at 57.5 µM]
9,O=C(Nc1ccccc1)Nc1ccc2n(c1=O)C[C@H]1C[C@@H]2CN(C(=O)c2ccccc2)C1,inactive: 3.93% [at 57.5 µM]
10,COC[C@H]1C[C@@H](NC2CCOCC2)[C@H](O)[C@@H]1O,inactive: 8.17% [at 77.1 µM]
11,CC(C)CCN1CCC2CC(=O)NCCC2C1 (stereo not drawn),inactive: -6.45% [at 77.1 µM]
12,O=C([C@H]1CN2CCC1C[C@@H]2Cn1cc(CCO)nn1)N1CCOCC1 (stereo partly drawn),inactive: 0.664% [at 57.5 µM]
13,CC(=O)N1[C@H]2CC[C@@H]1c1cnc(-c3ccc(F)cc3)nc1C2,inactive: 12.2%
14,Cc1ccccc1-c1ccc2n(c1=O)C[C@H]1C[C@@H]2CN(C(=O)NC2CCCCC2)C1,inactive: 13.2% [at 57.5 µM]
15,OCC1CN(c2ncccn2)CC12CCNCC2 (stereo not drawn),inactive: 10.8%
16,O=C(O)COCC(=O)N1C[C@@H]2C[C@H](C1)c1ccc(-c3cc4ccccc4s3)c(=O)n1C2,inactive: 1.54%
17,Cn1cc(CNCC2(CO)C[C@@H](O)[C@@H](O)C2)c2ccccc21 (stereo partly drawn),inactive: 12.5% [at 57.5 µM]
18,O=[S+]1([O-])NCC2(CCN(Cc3ccccn3)C2)Nc2ccccc21 (stereo not drawn),inactive: -3.85%
19,O=C1NCCCCCN(Cc2cccnc2)[C@H]2CCC[C@@H]12,inactive: 13.3%
20,CC(=O)Nc1ccc(-c2ccc3n(c2=O)C[C@H]2C[C@@H]3CN(C3CCN(C)CC3)C2)cc1,inactive: 3.85% [at 57.5 µM]
21,OC[C@H]1C[C@@H](NC2CCC2)[C@H](O)[C@@H]1O,inactive: -1.27% [at 77.1 µM]
22,CN(C)CCNC(=O)C1CNCC12CCOCC2 (stereo not drawn),inactive: 0.0797%
23,CCC(CC)c1cc([C@H]2CN3CC[C@H]2C[C@@H]3CNC(=O)C2CCC2)nc(-c2ccncc2)n1,inactive: 4.42%
24,CN1CCOC[C@H]2CCNC[C@H]21,inactive: 16.3%
25,Cc1ncc2c(n1)C[C@@H]1CC[C@H]2N1S(=O)(=O)Cc1ccccc1,inactive: 1.17%
26,Cc1ccc(NC(=O)N2C[C@@H]3C[C@H](C2)c2c(-c4cccs4)ccc(=O)n2C3)cc1,inactive: 2.07% [at 57.5 µM]
